Results as given in patent US20170015742A1.
Positions count from the first letter of the chain named. Results are given in words; binding and its absence hold for the method and conditions named. Some entries that bind do so weakly or less than the wild type.

Chains of the proteins cited; added tags and fusions are not shown. Lines headed by an entry give the natural chain unless they say otherwise; changes in a name come on top. A line that says so, or that is headed by a name, gives the form on record, which may keep a tag or linker. Residues count along the entry.
UniProt P01127, residues 82-190: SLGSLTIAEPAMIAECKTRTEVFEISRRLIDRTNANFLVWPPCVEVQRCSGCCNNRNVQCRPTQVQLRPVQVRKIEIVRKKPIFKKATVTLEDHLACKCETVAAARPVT
Naturally derived human VEGF-A (P15692, form named): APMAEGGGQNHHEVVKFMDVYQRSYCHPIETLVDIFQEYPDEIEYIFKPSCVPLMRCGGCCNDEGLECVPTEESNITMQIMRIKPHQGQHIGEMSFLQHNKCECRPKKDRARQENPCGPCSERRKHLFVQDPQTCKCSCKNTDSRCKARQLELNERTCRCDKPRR

B1: BDI-5H1-F6 (antibody, IgG2b, V domains shown)
VH: QVTLKESGPGILQPSQTLSLTCTFSGFSLSTFGMGVGWIRQPSGKGLEWLANIWWDDDKYYNPSLKNRLTISKDTSNSQAFLEITNVDTADTATYYCARISTGISSYYVMDAWGQGASVTVSS
VL: QFTLTQPKSVSGSLRSTITIPCERSSGDIGDTYVSWYQQHLGRPPINVIYGNDQRPSEVSDRFSGSIDSSSNSASLTITNLQMDDEADYFCQSYDSDIDIVFGGGTKLTVL
B2: BEW-9E7-B4 (antibody, V domains shown)
VH: QIQLVQSGPELKKPGESVKISCKASGYTFTNYGMYWVKQAPGQGLQYMGWIDTETGKPTYADDFKGRFVFFLETSASTAYLQINNLRNEDMATYFCARWGYTSDYYYGWFPDWGQGTLVTVST
VL: DTVLTQSPALAVSPGERVSISCRASEGVNSYMHWYQQNPGQQPKLLIYKASNLASGVPARFSGSGSGTDFTLNIHPVEADDTATYFCQQNWNVPLTFGSGTKLEIK
B3: BEW-9C2-D6 (antibody, V domains shown)
VH: QIQLVQSGPELKKPGESVKVSCKASGYTFTNYGIHWVKQAPGQGLQYVGWINTETGRPTYADDFKGRFVFFLETSASTAYLQINNLKNEDMATYFCARPLYYGYAHYFDYWGQGVMVTVSS
VL: DIQMTQSPASLSASLEEIVTITCQASQDIGNWLAWYQQKPGKSPQLLIYGATSLADGVPSRFSGSRSGTQYSLKISRLQVEDIGIYYCQQASSVTYTFGAGTKLELK
B4: BEW-9D2-E8 (antibody, V domains shown)
VH: QIQLVQSGPELKKPGESVKISCKASGYTFTNYGMYWVKLAPGQGLQYLGWINTETGKPTYADDFKGRFVFFLETSASTAYLQINNLRNEDMATYFCARPSDYYDGFWFAYWGQGTLVTVSS
VL: B2 VL with A11T, G27W, N73T, I74L, H75D, N90S, V93D
B5: BEW-1B10-B9-C3 (antibody, V domains shown)
VH: EVQLVESGGGLVQPGRSLKLSCAASGFSFSKYDMAWFRQTPTKGLEWVASITTSGVGTYYRDSVKGRFTVSRDNAKSTLYLQMDSLRSEDTATYYCARGYGAMDAWGQGTSVTVSS
VL: DIQMTQSPASLSASLEEIVTITCKASQDIDDYLSWYQQKPGKSPQLVIYAATRLADGVPSRFSGSGSGTQYSLKISRLQVDDSGIYYCLQSSSTPWTFGGGTNLELK
B6: BEW-3A1-D10-G9 (antibody, V domains shown)
VH: QVQLEQSGAELVKPGTSVKLSCMASGYTSSSNHMNWMKQTTGQGLEWIGIINPGSGGTRYNVKFEGKATLTVDKSSSTAFMQLNSLTPEDSAVYYCARAGFPGPFSYYAMGAWGQGTSVTVSS
VL: DIQMTQSPPVLSASVGDRVTLSCKASQNIHNNLDWYQQKHGEAPKLLIFYTNNLQTGIPSRFSGSGSGTDYTLTISSLQPEDVATYYCYQYNSGYTFGAGTKLELK
B7: BED-4G10-C8 (antibody, V domains shown)
VH: QVQLQQSGTELVKPGSSVKISCKASGYTFTSNYMHWIRQQPGNGLEWIGWIYPGDGDTNYNHNFNGKATLTADKSSSTAYMQLSSLTSEDFAVYFCASSTRAIPGWFTYWGQGTLVTVSS
VL: DTVLTQSPALAVSPGERVSISCWASESVSTLMHWYQQKLGQQPKLLIYGASNLESGVPARFRGSGSGTDFTLTIDPVEADDTATYFCQQSWSDPYTFGAGTKLELK
B8: BDB-4G8-D4 (antibody, V domains shown)
VH: QIQLVQSGPELKKPGESVKISCKASGYTFTNYGMYWVKQAPGQGLQYMGWINTETGKPTYADDFKGRFVFFLETSASTAYLQINNLKNEDMATYFCARTNYYYRSYIFYFDYWGQGTMVTVSS
VL: B7 VL with W23R, L31H, L39P, R62S, S92N, Y95F, G100V
B9: BEW-164-C4 (antibody, IgG2b, V domains shown)
VH: QIQLVQSGPELKKPGESVKISCKASGYSFTNYGMYWVKQAPGQGLQYMGWIDTETGKPTYTDDFKGRFVFFLETSASTAYLQINNLKNEDMATYFCARWSGDTAGIRGPWFAYWGQGTLVTVSS
VL: DIRMTQSPASLSASLGETVNIECLASEDIYSDLAWYQQKPGKSPQLLIYNANDLQKGVPSRFSGSGSGTQYSLKINSLQSEDVATYFCQQYNYYPGTFGAGTKLELK
B10: BEW-1E3-D6 (antibody, IgG2b, V domains shown)
VH: QIQLVQSGPELKKPGESVKISCKASGYPFTNSGMYWVKQAPGQGLQYMGWINTEAGKPTYADDFKGRFVFFLETSASTAYLQINNLKNEDMATYFCARWGYISDNSYGWFDYWGQGTLVTVSS
VL: B2 VL with N29Y, N73T, H75D, Q88H, V93D
B11: BEW-5C3-E7 (antibody, IgG2b, V domains shown)
VH: QIQLVQSGPELKKPGESVKISCKASGYTFTNYGVYWVKQAPGQGLQYMGWINTETGKPTYADDFKGRFVFFLETSTNTAYLQINNLKNEDMATFFCARARQLDWFVYWGQGTLVTVSS
VL: DTVLTQSPALTVSPGERVSISCRARESLTTSLCWFQQKPGQQPKLLIYGASKLESGVPARFSGSGSGTDFTLTIDPVEADDTATYFCQQSWYDPPTFGGGTKLELK
B12: BEW-6C2-C8 (antibody, IgG2b, V domains shown)
VH: EVQLVESGGGLVQPGSSLKLSCAASGFTFSYYGMHWIRQAPKKGLEWMALIYYDSSKMYYADSVKGRFTISRDNSKNTLYLEMNSLRSEDTAMYYCAAGGTAPVYWGQGVMVTVSS
VL: NIQLTQSPSLLSASVGDRVTLSCKGSQNIANYLAWYQQKLGEAPKLLIYNTDSLQTGIPSRFSGSGSGTDYTLTISSLQPEDVATYFCYQSNNGYTFGAGTKLELR
B13: BEW-8E6-E4 (antibody, IgG2a, V domains shown)
VH: QIQLVQSGPELKKPGESVKISCKASGYTFTDYAMHWVKQAPGKVLKWMGWINTFTGKPTYIDDFKGRFVFSLEASASTANLQISDLKNEDTATYFCARGNYYSGYWYFDFWGPGTMVTMSS
VL: DIQMTQSPASLSASLGETISIECRASEDISSNLAWYQQKSGKSPQLLIFAANRLQDGVPSRFSGSGSGTQFSLKISGMQPEDEGDYFCLQGSKFYTFGAGTKLELK
B14: BEW-9A8-E2 (antibody, IgG2a, V domains shown)
VH: QIQLVQSGPELKKPGESVKISCKASGYTFTNYGMYWVKQAPGQGLQYMGWINTETGKPIYADDFKGRFVFFLETSASTAYLQINNLKNEDMATFFCARVDYDGSFWFAYWGQGTLVTVSS
VL: B7 VL with W23R, L31V, M32I, L39P, Y48H, R62S, S90H, S92N, Y95P, L105M
B15: BEW-9E10-E7 (antibody, IgG2a, V domains shown)
VH: B9 VH with V5L, S28T, K57R, T61A, A104T
VL: B9 VL with K42R, D53G, K56N, S63G, Y94F
B16: BEW-10H2-B9 (antibody, IgG2b, V domains shown)
VH: QIQLVQSGPELKKPGESVKISCKASGYSFTNFGLYWVKQAPGQGLQYMGWIDTETGKPTYADDFRGRFVFFLETSASTAYLQINNLKNEDMATYFCARVYGYPSWYFDFWGPGTMVTVSS
VL: DIQMTQSPASLSTSLEEIVTITCQASQDIDNYLSWYQQKPGKSPQLLIHSATSLADGVPSRFSGSRSGTQFSLKIHRLQVEDTGIYYCLQHFFPPWTFGGGTKLELK
B17: BEW-9E3-B9 (antibody, IgG2a, V domains shown)
VH: B4 VH with L39Q, L48M, Y80F, R87K, A109P, T115A
VL: B2 VL with V3I, V18I, N73T, H75D, N90S, V93D
B18: CL-33675-IgG (antibody, V domains shown)
VH: EVTLRESGPALVKPTQTLTLTCTFSGFSLSTYGMGVGWIRQPPGKALEWLANIWWDDDKYYNPSLKNRLTISKDTSKNQVVLTMTNMDPVDTATYYCARIESSGPKYSFDYWGQGTMVTVSS
VL: EIVLTQSPGTLSLSPGERATLSCRASSGSIWYSFVSWYQQKPGQAPRLLIYADDQRASGIPDRFSGSGSGTDFTLTISRLEPEDFAVYYCQSYGINIDVVFGGGTKVEIK

target: naturally derived human PDGF-BB (human) (UniProt P01127); assay: sandwich ELISA, antibody coated, native hPDGF-BB from platelets

| Binder | binding |
| --- | --- |
| B1 | binds |

target: Naturally derived human VEGF-A (human) (UniProt P15692); assay: sandwich ELISA, antibody coated, naturally derived huVEGF-A from Y-79 supernatant

| Binder | binding |
| --- | --- |
| B2 | binds |
| B3 | binds |
| B4 | binds |
| B5 | binds |
| B6 | binds |
| B7 | binds |
| B8 | binds |

target: Naturally derived human VEGF-A (human) (UniProt P15692); assay: sandwich ELISA, coated antibody, naturally derived huVEGF-A from Y-79 supernatant

| Binder | binding |
| --- | --- |
| B9 | binds |
| B10 | binds |
| B11 | binds |
| B12 | binds |
| B13 | binds |
| B14 | binds |
| B15 | binds |
| B16 | binds |
| B17 | binds |

target: naturally derived ECM-associated PDGF-BB on HUVEC cells (human) (UniProt P01127); assay: immunofluorescence staining of fixed HUVEC cells, 33 nM

| Binder | binding |
| --- | --- |
| B18 | binds |

target: Human VEGF-A 165 (human) (UniProt P15692); assay: direct binding ELISA on biotinylated hVEGF165 captured on neutravidin plates

| Binder | binding |
| --- | --- |
| B9 | binds |

target: recombinant human PDGF-BB (human) (UniProt P01127); assay: direct binding ELISA, biotin-hPDGF-BB on neutravidin plate

| Binder | binding |
| --- | --- |
| B1 | binds |
